The assay deals with N-hCD73-his (human) (UniProt P21589). As to the kind of experiment: SPR. (SPR reads the build-up and loss of mass on a sensor chip optically.)

Chains of the proteins cited; added tags and fusions are not shown. Lines headed by an entry give the natural chain unless they say otherwise; changes in a name come on top.
UniProt P21589: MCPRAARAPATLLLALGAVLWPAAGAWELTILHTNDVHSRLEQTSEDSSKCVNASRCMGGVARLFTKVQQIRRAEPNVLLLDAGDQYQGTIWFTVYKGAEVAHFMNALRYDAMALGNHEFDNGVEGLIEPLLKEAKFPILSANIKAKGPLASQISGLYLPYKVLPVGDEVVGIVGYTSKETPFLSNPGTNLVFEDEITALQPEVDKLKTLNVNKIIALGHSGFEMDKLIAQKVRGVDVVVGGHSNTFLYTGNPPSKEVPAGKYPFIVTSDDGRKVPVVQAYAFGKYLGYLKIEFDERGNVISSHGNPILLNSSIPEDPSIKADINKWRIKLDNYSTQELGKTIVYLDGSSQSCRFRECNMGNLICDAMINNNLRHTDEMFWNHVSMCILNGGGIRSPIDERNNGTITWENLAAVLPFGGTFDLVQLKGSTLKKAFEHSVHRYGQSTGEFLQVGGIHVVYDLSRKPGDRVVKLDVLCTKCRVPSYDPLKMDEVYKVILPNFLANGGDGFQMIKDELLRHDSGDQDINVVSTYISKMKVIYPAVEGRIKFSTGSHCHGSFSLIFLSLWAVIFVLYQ

No constants are given. Whether binding was seen depends on the method and setting. Some entries that bind do so weakly or less than the wild type.

B1: 5F8 (antibody, human IgG1, kappa, V domains shown)
VH: EVQLVESGGGLVQPGGSLRLSCAASGFTFSSYWMHWVRQAPGKGLVWVSRIISDGSSTGYADSVKGRFTISRDNAKNTLYLQMNSLRAEDTAVYYCAREFSSGWYFDYWGQGTLVTVSS
VL: AIQLTQSPSSLSASVGDRVTITCRASQGISSALAWYQQKPGKAPKLLIYDASSLESGVPSRFSGSGSGTDFTLTISSLQPEDFATYYCQQFSSYPRTFGQGTKVEIKR
With B1, the binding entry was “binds”.

The values above are taken from patent US20180127513A1.
